PubChem BioAssay AID493246, Drosophila RNAi Screening Center | 2011
The deposit covers about 21,000 reagents; shown is an unselected part of those that have a named target and a result. In the full data, 429 (2%) were called active. 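Values are raw and not normalised between plates; calls rest on per-plate z-scores that were not deposited.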 Entries without a mark were called inactive. A plus sign joins genes that one reagent is predicted to hit. Not given: the amount of reagent, the time to read-out.

Assay: 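Identify essential fly genes by loss of cell viability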 (primary screen)
Cell system: Drosophila Kc and S2R+ cells
Reagents: long dsRNA against Drosophila genes
Measurement: 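Raw, unnormalised count of remaining cells in each well; per-plate z-scores of cell number underlie the calls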
Scale: Kc cell number and S2R+ cell number: higher = more cells remaining
Hit rule: 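Counted as a hit if cell number falls by a z-score of at least 3 within its plate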

target	amplicon	Kc cell number, rep 1	Kc cell number, rep 2	S2R+ cell number, rep 1	S2R+ cell number, rep 2
ps	DRSC15149	1.55e6	1.54e6	1.27e6	1.43e6
ps	DRSC15151	1.10e6	1.16e6	1.02e6	1.19e6
ps	DRSC15152	1.23e6 (active)	1.22e6	7.51e5	8.71e5
ps	DRSC16388	1.58e6	1.06e6	1.06e6	1.19e6
CG14111	DRSC10114	1.36e6	1.33e6	1.41e6	1.48e6
Mdh1 (retired record)	DRSC02846	1.82e6	1.85e6	1.17e6	1.34e6
CG5641	DRSC15852	1.57e6	1.66e6	1.43e6	1.48e6
CG9590	DRSC16506	1.63e6	1.70e6	1.18e6	1.26e6
Zip102B	DRSC17155	1.48e6	1.49e6	1.02e6	1.11e6
Mau2	DRSC15550	1.58e6	1.57e6	1.23e6	1.31e6
Cyp311a1	DRSC20239	1.59e6	1.60e6	1.09e6	1.23e6
Nup107	DRSC01999	1.13e6	1.43e6	1.05e6	1.19e6
CG10958	DRSC17768	5.90e5		8.68e5	
omd	DRSC16507	1.33e6	1.40e6	9.91e5	1.08e6
Ccz1	DRSC08439	1.39e6	1.24e6	9.62e5	1.19e6
CG18404	DRSC15323	1.49e6	1.48e6	9.92e5	1.08e6
CG1227	DRSC12534	1.67e6	1.83e6	1.43e6	1.59e6
sktl	DRSC04715	1.34e6	1.40e6	1.13e6	1.20e6
CG14069	DRSC02372	1.57e6	1.62e6	1.18e6	1.29e6
CG15059	DRSC19633	1.75e6	1.73e6	1.13e6	1.29e6
DNAlig3	DRSC15201	1.49e6	1.46e6	1.32e6	1.41e6
Ip6k	DRSC04054	9.30e5	1.01e6	7.67e5	6.23e5
CG12935	DRSC06248	1.34e6	1.41e6	1.15e6	1.27e6
CG15043	DRSC19619	1.60e6	1.62e6	1.16e6	1.23e6
Ddx1	DRSC11862	1.53e6	1.54e6	1.29e6	1.31e6
mspo	DRSC07652	1.54e6	1.53e6	1.27e6	1.31e6
Cyp6a16Psi (retired record)	DRSC03307	1.45e6	1.43e6	1.20e6	1.31e6
CG12935 + Nop10	DRSC07025	1.73e6	1.84e6	1.28e6	1.41e6
CG14252	DRSC14747	1.48e6	1.51e6	1.00e6	1.11e6
egg	DRSC04119	1.37e6	1.41e6	1.05e6	1.08e6
CG18577	DRSC15352	1.64e6	1.64e6	1.31e6	1.43e6
Tom	DRSC11306	1.75e6	1.76e6	1.43e6	1.39e6
Tsp42En	DRSC06185	1.53e6	1.59e6	1.28e6	1.54e6
CG31296	DRSC13092	1.38e6	1.63e6	1.08e6	1.19e6
Fbp2	DRSC03327	1.32e6	1.40e6	1.15e6	1.14e6
CG7646	DRSC11232	1.55e6	2.07e6	1.32e6	1.43e6
CG16964	DRSC02546	1.63e6	1.66e6	1.27e6	1.46e6
CG7848	DRSC07050	1.65e6	1.73e6	1.16e6	1.28e6
Pepck1	DRSC07505	1.71e6	1.73e6	1.19e6	1.34e6
hkb	DRSC12377	1.37e6	1.33e6	1.22e6	1.32e6

Looked up above:
Under “S2R+ cell number, rep 2”, Mau2 [DRSC15550] has 1.31e6
Ip6k [DRSC04054], S2R+ cell number, rep 2: 6.23e5
ps [DRSC15152], Kc cell number, rep 2: 1.22e6 (active)
Result for Fbp2 [DRSC03327] in “S2R+ cell number, rep 2”: 1.14e6
